The results in this text go back to patent publication US4103005A, “Novel-enkephalin analogs” (Hoffmann-La Roche Inc., priority 1977, dated 1978).

This test concerns male ICR mice. Put plainly: Analgesic assay by the tail-flick method in mice. The class given is in vivo. The following applies: relative to morphine sulfate = 1, molar basis. The procedure:
For analgesic assay, male ICR mice weighing 25-30 g were used in all the experiments. The enkephalin analogs dissolved in saline were administered either centrally according to the method described by Haley and McCormick, Br. J. Pharmacol, 12, 12 (1957) or intravenously via the tail vein. The injection volume is 5 μl for central injection and 10 μl per gram body weight for intravenous injection. Naloxone HCl (3 mg/kg) was injected subcutaneously 5 min before the administration of enkephalin analogs. Analgesic activity was assayed by the tail-flick method of D'Amour and Smith, J. Pharmacol, Exp. Ther. 72, 74 (1941).
The percent of analgesia was calculated as [(T1 -T0)/(T2 -T0)] × 100, where a control latency (T0) was obtained from the mean of two latencies determined before drug injection; the test latencies (T1) were determined at various times after injection for each animal; the cutoff time (T2) for the tail-flick was 7 seconds. The median analgesic dose (AD50) and 95% confidence limits were calculated according to the method of Litchfield and Wilcoxon, J. Pharacol. Exp. Ther. 96, 99 (1949). The locomotor activity to the mice was measured with an electronic Fe 40 motility meter (Motron Produkter, Stockholm, Sweden). The detail of the experimental method has been described by Tseng et al., Nature (London) 263, 239 (1976).

Regarding `CN1CC[C@]23c4c5ccc(O)c4O[C@H]2[C@@H](O)C=C[C@H]3[C@H]1C5.O=S(=O)(O)O` [Morphine sulfate, reference compound], the Intracerebroventricular potency ratio (intracerebroventricular) is recorded as 1. For the same compound, the Intravenous potency ratio (intravenous) was 1.
